From the supplement of paper PMC8728848
The other results are listed elsewhere or left out.

How the values were obtained:
Assay in all cases: glycan array binding signal (z-score within array); higher = stronger binding
Settings in all cases: glycan notation: IUPAC condensed, linker removed; mutation: R201A
[1] = target: GlcNAc(b1-4)GlcNAc(b1-4)GlcNAc(b1-4)GlcNAc(b1-4)GlcNAc
Summary of the method: (§1)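 Glycan array binding is given as a within-array Z-score, which can be read as non-binding when negative. The arrays, 3228 of them, came from the Consortium for Functional Glycomics database and were retained only where the protein sequence was available. Z-scores were averaged across arrays of the same protein sequence at different concentrations or buffers and across linkers.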

[2] = target: GlcNAc(b1-4)GlcNAc(b1-4)GlcNAc(b1-4)GlcNAc(b1-4)GlcNAc(b1-4)GlcNAc
Summary of the method: as §1

[3] = target: GlcNAc(b1-4)[GlcNAc(b1-6)]GalNAc
Summary of the method: as §1

[4] = target: GlcNAc(b1-6)Gal(b1-4)GlcNAc
Summary of the method: as §1

[5] = target: GlcNAc(b1-6)GalNAc
Summary of the method: as §1

[6] = target: GlcNAc6S(b1-3)Gal(b1-4)GlcNAc
Summary of the method: as §1

[7] = target: Kdn(a2-3)Gal(b1-3)GalNAc
Summary of the method: as §1

[8] = target: Kdn(a2-3)Gal(b1-3)GlcNAc
Summary of the method: as §1

[9] = target: Kdn(a2-3)Gal(b1-4)Glc
Summary of the method: as §1

[10] = target: Kdn(a2-3)Gal(b1-4)GlcNAc
Summary of the method: as §1

[11] = target: Kdn(a2-3)Gal(b1-4)[Fuc(a1-3)]GlcNAc
Summary of the method: as §1

[12] = target: Kdn(a2-6)Gal(b1-4)GlcNAc
Summary of the method: as §1

[13] = target: Man(a1-2)Man(a1-2)Man(a1-3)Man
Summary of the method: as §1

[14] = target: Man(a1-2)Man(a1-2)Man(a1-6)[Man(a1-3)]Man
Summary of the method: as §1

[15] = target: Man(a1-2)Man(a1-3)Man
Summary of the method: as §1

[16] = target: Man(a1-2)Man(a1-3)[Man(a1-2)Man(a1-6)]Man
Summary of the method: as §1

[17] = target: Man(a1-2)Man(a1-3)[Man(a1-2)Man(a1-6)]Man(a1-6)[Man(a1-2)Man(a1-2)Man(a1-3)]Man
Summary of the method: as §1

[18] = target: Man(a1-2)Man(a1-3)[Man(a1-2)Man(a1-6)]Man(a1-6)[Man(a1-2)Man(a1-2)Man(a1-3)]Man(b1-4)GlcNAc(b1-4)GlcNAc
Summary of the method: as §1

[19] = target: Man(a1-2)Man(a1-3)[Man(a1-6)]Man(a1-6)[Man(a1-2)Man(a1-3)]Man(b1-4)GlcNAc(b1-4)GlcNAc
Summary of the method: as §1

[20] = target: Man(a1-2)Man(a1-6)[Man(a1-3)]Man(a1-6)[Man(a1-2)Man(a1-2)Man(a1-3)]Man
Summary of the method: as §1

[21] = target: Man(a1-2)Man(a1-6)[Man(a1-3)]Man(a1-6)[Man(a1-2)Man(a1-2)Man(a1-3)]Man(b1-4)GlcNAc(b1-4)GlcNAc
Summary of the method: as §1

[22] = target: Man(a1-3)[Man(a1-6)]Man
Summary of the method: as §1

[23] = target: Man(a1-3)[Man(a1-6)]Man(a1-6)[Man(a1-2)Man(a1-3)]Man(b1-4)GlcNAc(b1-4)GlcNAc
Summary of the method: as §1

[24] = target: Man(a1-3)[Man(a1-6)]Man(a1-6)[Man(a1-3)]Man
Summary of the method: as §1

[25] = target: Man(a1-3)[Man(a1-6)]Man(a1-6)[Man(a1-3)]Man(b1-4)GlcNAc(b1-4)GlcNAc
Summary of the method: as §1

[26] = target: Man(a1-3)[Man(a1-6)]Man(b1-4)GlcNAc(b1-4)GlcNAc
Summary of the method: as §1

[27] = target: Man(a1-3)[Man(a1-6)]Man(b1-4)GlcNAc(b1-4)[Fuc(a1-6)]GlcNAc
Summary of the method: as §1

[28] = target: Man(a1-6)Man
Summary of the method: as §1

[29] = target: Man(b1-4)GlcNAc
Summary of the method: as §1

[30] = target: MurNAc(b1-4)GlcNAc
Summary of the method: as §1

[31] = target: Neu5Ac(a2-3)Gal
Summary of the method: as §1

[32] = target: Neu5Ac(a2-3)Gal(b1-3)GalNAc
Summary of the method: as §1

[33] = target: Neu5Ac(a2-3)Gal(b1-3)GalNAc(b1-3)Gal(a1-4)Gal(b1-4)Glc
Summary of the method: as §1

[34] = target: Neu5Ac(a2-3)Gal(b1-3)GalNAc(b1-4)Gal(b1-4)Glc
Summary of the method: as §1

[35] = target: Neu5Ac(a2-3)Gal(b1-3)GalNAc(b1-4)[Neu5Ac(a2-3)]Gal(b1-4)Glc
Summary of the method: as §1

[36] = target: Neu5Ac(a2-3)Gal(b1-3)GalNAc(b1-4)[Neu5Ac(a2-8)Neu5Ac(a2-3)]Gal(b1-4)Glc
Summary of the method: as §1

[37] = target: Neu5Ac(a2-3)Gal(b1-3)GalNAc6S
Summary of the method: as §1

B1: OS9 (Arabidopsis thaliana) (protein)
chain: MRGSHHHHHHGMASMTGGQQMGRDLYDDDDKSRLQIFPAHLVGTFSRNNREPKYKIEFLPEDSPFHPGDNLESMVMLDKHGNRFLCYLPKEEKATSGWTSSQQNISTVMMETQQLVKLKTPDELLQPLSEKCLFRQEGWWSYEFCHQKYVRQLHVEDENKIVQEFFLGTFDPEATAAFNQTVSDASTDASQRYHSHVYTNGTTCDLTGSPAEVEVRFVCAETRAMVTSITELSTCKYALTVQCPTLCKHPLFQLEKPVSHTIHCNAIPVEEDATRNKEEQAVDESPKMIADS
For B1, the “glycan array binding signal (z-score)” value [1] was 1.16, the “glycan array binding signal (z-score)” value [2] was 0.152 and the “glycan array binding signal (z-score)” value [3] was -0.045. The “glycan array binding signal (z-score)” value [4] was 0.172, the “glycan array binding signal (z-score)” value [5] was -0.498 and the “glycan array binding signal (z-score)” value [6] was -0.224. The “glycan array binding signal (z-score)” value [7] was 0.105, the “glycan array binding signal (z-score)” value [8] was -0.515 and the “glycan array binding signal (z-score)” value [9] was -0.85. For the same binder, the “glycan array binding signal (z-score)” value [10] was 0.191, the “glycan array binding signal (z-score)” value [11] was 0.82 and the “glycan array binding signal (z-score)” value [12] was -0.068. For the same binder, the “glycan array binding signal (z-score)” value [13] was 0.875, the “glycan array binding signal (z-score)” value [14] was 0.361 and the “glycan array binding signal (z-score)” value [15] was 0.874. For the same binder, the “glycan array binding signal (z-score)” value [16] was -0.568, the “glycan array binding signal (z-score)” value [17] was 0.167 and the “glycan array binding signal (z-score)” value [18] was 0.316. The “glycan array binding signal (z-score)” value [19] was -0.138, the “glycan array binding signal (z-score)” value [20] was 0.212 and the “glycan array binding signal (z-score)” value [21] was -0.12. The “glycan array binding signal (z-score)” value [22] was -0.58, the “glycan array binding signal (z-score)” value [23] was 0.185 and the “glycan array binding signal (z-score)” value [24] was -0.072. The “glycan array binding signal (z-score)” value [25] was 1.03, the “glycan array binding signal (z-score)” value [26] was -0.762 and the “glycan array binding signal (z-score)” value [27] was 0.428. The “glycan array binding signal (z-score)” value [28] was -0.709, the “glycan array binding signal (z-score)” value [29] was -0.888 and the “glycan array binding signal (z-score)” value [30] was 0.569. The “glycan array binding signal (z-score)” value [31] was -0.76, the “glycan array binding signal (z-score)” value [32] was 0.015 and the “glycan array binding signal (z-score)” value [33] was -0.854. For the same binder, the “glycan array binding signal (z-score)” value [34] was 0.276, the “glycan array binding signal (z-score)” value [35] was -0.662 and the “glycan array binding signal (z-score)” value [36] was -0.018. The “glycan array binding signal (z-score)” value [37] was -1.18.
